Experimental data reported in patent publication US20210139907.

Chains of the proteins cited; added tags and fusions are not shown. Chains listed by the source or under a name are the forms on record and can include a tag or linker. Residues count along the entry.
UniProt Q8WW62, 22-240: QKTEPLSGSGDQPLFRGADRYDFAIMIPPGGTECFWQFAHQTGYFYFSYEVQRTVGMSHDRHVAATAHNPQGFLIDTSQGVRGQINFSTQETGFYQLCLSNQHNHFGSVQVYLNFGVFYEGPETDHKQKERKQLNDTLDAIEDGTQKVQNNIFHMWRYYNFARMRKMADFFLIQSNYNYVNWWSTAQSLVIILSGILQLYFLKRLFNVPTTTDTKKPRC
Clusterin (Homo sapiens), one chain, as listed by the source, chain 2 of 2: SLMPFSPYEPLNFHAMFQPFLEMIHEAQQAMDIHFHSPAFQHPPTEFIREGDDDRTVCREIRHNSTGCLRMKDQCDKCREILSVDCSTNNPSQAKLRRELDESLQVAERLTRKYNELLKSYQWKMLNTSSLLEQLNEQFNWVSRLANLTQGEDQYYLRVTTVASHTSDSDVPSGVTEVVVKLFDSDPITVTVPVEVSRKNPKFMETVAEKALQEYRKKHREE
Clusterin (Homo sapiens), one chain, as listed by the source, chain 1 of 2: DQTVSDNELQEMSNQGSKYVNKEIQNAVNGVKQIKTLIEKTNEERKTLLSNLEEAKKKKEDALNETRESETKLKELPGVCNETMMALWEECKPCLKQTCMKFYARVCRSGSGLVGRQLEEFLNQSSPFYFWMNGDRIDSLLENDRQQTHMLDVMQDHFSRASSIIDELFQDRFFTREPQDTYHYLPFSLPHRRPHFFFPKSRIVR

How the values were obtained:
TMED6 (Homo sapiens) = TMED6 (Homo sapiens) (UniProt Q8WW62); assay: binding assay; details: 2'-F pyrimidines (2'-F-dCTP, 2'-F-dUTP in selection transcription); protein array of >19,000 recombinant human proteins, Cy3-aptamer 1 ug, RT 30 min; TMED6 most likely ligand; purified recombinant protein; label: Cy3
Clusterin (Homo sapiens) = assay: pull-down; details: 2'-F pyrimidines (2'-F-dCTP, 2'-F-dUTP in selection transcription); human islet lysate, magnetic bead capture and mass spectrometry (score 236); clusterin silencing reduced aptamer binding to beta cells; described as possible target; protein in an extract; label: 3' biotin

“GGAGGACGAUGCGGUAAUUCUCAGGAGGUGCGGAACGGGAUAUGGAUUGUUCGCCAGACGACUCGCUGAGGAUCCGAGA [1-717]”: binds (TMED6 (Homo sapiens)).

“GGAGGACGAUGCGGCAACAAACUAAUCAGACACGAGACAGAGAGAUAGAUCUGCCAGACGACUCGCUGAGGAUCCGAGA [m12-3773]”: binds (Clusterin (Homo sapiens)).

Construct, isoform or probe ends are uncertain for at least one entry. For some assays here: Results from cells or extracts need not show a direct contact.
